Laboratory results as given in EP2155158B1, “PERSONAL LUBRICANT COMPOSITION” (LRC Products Limited, priority 2007, dated 2008).
At least one structure is not confirmed: it was looked up by name or label, or the drawing left a doubt.

Assay: Cooling strength of coolants relative to menthol
Conditions: menthol = 100
From the text: N-ethyl-p-menthane-3-carboxamide has, to date, primarily been used in oral, medicinal and confectionary products, such as breath freshening chewing gums. […]

With `CC1CCC(C(C)C)C(OCC(O)CO)C1` (stereo not shown) [Menthoxypropane-1,2-diol] the “Cooling strength relative to menthol” value was 15.8 - 39.5.
